These are literature values, as cited in patent publication US6562363B1, “Bioadhesive compositions and methods for topical administration of active agents” (Noven Pharmaceuticals, Inc., priority 1997, dated 2003).

The conditions of the data set: application to skin or mucous membranes.

For `CCN(CC)CC(=O)Nc1c(C)cccc1C` [Lidocaine], where the note is “duration of anesthetic effect”, the “Duration of Effect” value is 30 to 60 min. Besides, the “Peak Effect” value (time to peak anesthetic effect) is 2 to 5 min.
